This is one part of the list. Single values are uncertain, as repeats are few or missing.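 The apoptosis fraction was the count of cleaved-PARP antibody-stained nuclei relative to all DNA-stained nuclei, imaged in 1,536-well plates. Screening doses were set so most cells survived, and baseline and induced cleaved-PARP levels vary greatly across cell lines.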
How the values were obtained:
Experiment in all cases: cleaved PARP positive nuclei fraction relative to DMSO control; melanoma cells; higher = more apoptosis
Settings in all cases: library dose: low library concentration; 72 h
MZ2-MEL = tested on: MZ2-MEL
MeWo = tested on: MeWo
RPMI7951 = tested on: RPMI7951
RVH-421 = tested on: RVH-421
SkMel28 = tested on: SkMel28
SkMel2 = tested on: SkMel2
SkMel30 = tested on: SkMel30
UACC62 = tested on: UACC62
WM115 = tested on: WM115
WM1716 = tested on: WM1716
WM1745 = tested on: WM1745
WM3526 = tested on: WM3526
WM3619 = tested on: WM3619
WM451Lu = tested on: WM451Lu

Row | SMILES | cleaved PARP positive nuclei fraction (MZ2-MEL) | cleaved PARP positive nuclei fraction (MeWo) | cleaved PARP positive nuclei fraction (RPMI7951) | cleaved PARP positive nuclei fraction (RVH-421) | cleaved PARP positive nuclei fraction (SkMel28) | cleaved PARP positive nuclei fraction (SkMel2) | cleaved PARP positive nuclei fraction (SkMel30) | cleaved PARP positive nuclei fraction (UACC62) | cleaved PARP positive nuclei fraction (WM115) | cleaved PARP positive nuclei fraction (WM1716) | cleaved PARP positive nuclei fraction (WM1745) | cleaved PARP positive nuclei fraction (WM3526) | cleaved PARP positive nuclei fraction (WM3619) | cleaved PARP positive nuclei fraction (WM451Lu)
1 | C[C@@H](Oc1cc(-c2cnn(C3CCNCC3)c2)cnc1N)c1c(Cl)ccc(F)c1Cl [Crizotinib] + O=C(O)[C@@H]1[O][Sb](=[O])([O][Sb]2(=[O])[O][C@H]([C@H](O)CO)[C@H](O)[C@H](C(=O)O)[O]2)[O][C@H]([C@H](O)CO)[C@@H]1O [stibogluconate] (first compound 0.2 µM, partner dose 2 µM) | 92.8% | 110% | 216% | 119% | 238% | 34.5% | 253% | 137% | 65.5% | 122% | 83.1% | 86.2% | 93.1% | 89.3%
2 | O=C(O)c1ccc2c(c1)nc(Nc1cccc(Cl)c1)c1ccncc12 + C[C@]1(c2nc3c(C(N)=O)cccc3[nH]2)CCCN1 [Veliparib] (first compound 0.4 µM, partner dose 1.4 µM) | 182% | 36.3% | 149% | 134% | 41% | 137% | 199% | 124% | 107% | 160% | 97.2% | 52.2% | 108% | 43.6%
3 | C[C@@H](Oc1cc(-c2cnn(C3CCNCC3)c2)cnc1N)c1c(Cl)ccc(F)c1Cl [Crizotinib] + COc1ccc(Cl)c(Nc2nc3ccccc3nc2NS(=O)(=O)c2cccc(NC(=O)C(C)(C)N)c2)c1 [XL147] (first compound 0.2 µM, partner dose 0.8 µM) | 70.2% | 53.7% | 137% | 98.7% | 44% | 80.4% | 84% | 144% | 119% | 20.4% | 94.4% | 66.6% | 81.3% | 30.9%
4 | C=C(c1ccc(C(=O)O)cc1)c1cc2c(cc1C)C(C)(C)CCC2(C)C [Bexarotene] + Clc1ccc(Nc2nnc(Cc3ccncc3)c3ccccc23)cc1 [vatalanib] (first compound 2 µM, partner dose 2 µM) | 88.9% | 101% | 106% | 54.1% | 109% | 43.9% | 61.7% | 81% | 55.3% | 77.8% | 91.6% | 86.9% | 99.1% | 29.7%
5 | Cn1c(=O)n(-c2ccc(C(C)(C)C#N)cc2)c2c3cc(-c4cnc5ccccc5c4)ccc3ncc21 + C[C@]1(c2nc3c(C(N)=O)cccc3[nH]2)CCCN1 [Veliparib] (first compound 0.004 µM, partner dose 1.4 µM) | 117% | 118% | 43% | 145% | 97.4% | 43.5% | 62.6% | 260% | 132% | 115% | 94.5% | 42.3% | 91.8% | 52.3%
6 | Cn1c(=O)n(-c2ccc(C(C)(C)C#N)cc2)c2c3cc(-c4cnc5ccccc5c4)ccc3ncc21 + Cn1c(Nc2ccc(C(F)(F)F)cc2)nc2cc(Oc3ccnc(-c4ncc(C(F)(F)F)[nH]4)c3)ccc21 [CHIR265] (first compound 0.004 µM, partner dose 0.08 µM) | 205% | 219% | 207% | 237% | 177% | 178% | 176% | 363% | 577% | 101% | 135% | 129% | 205% | 62.4%
7 | Cn1c(=O)n(-c2ccc(C(C)(C)C#N)cc2)c2c3cc(-c4cnc5ccccc5c4)ccc3ncc21 + CC(C)C[C@H](NC(=O)[C@H](Cc1ccccc1)NC(=O)c1cnccn1)B(O)O [Bortezomib] (first compound 0.004 µM, partner dose 0.001 µM) | 54.2% | 135% | 111% | 101% | 47.8% | 101% | 78.3% | 151% | 106% | 114% | 104% | 46.4% | 291% | 91.2%
8 | Cc1cc(Nc2cc(N3CCN(C)CC3)nc(/C=C/c3ccccc3)n2)n[nH]1 + C[C@@H](Oc1cc(-c2cnn(C3CCNCC3)c2)cnc1N)c1c(Cl)ccc(F)c1Cl [Crizotinib] (first compound 0.04 µM, partner dose 0.2 µM) | 109% | 83.9% | 150% | 27.4% | 45% | 85.3% | 14.6% | 121% | 157% | 133% | 128% | 49.5% | 71.7% | 58.5%
9 | Nc1ncn([C@H]2C[C@H](O)[C@@H](CO)O2)c(=O)n1 [decitabine] + Cc1nc(Nc2ncc(C(=O)Nc3c(C)cccc3Cl)s2)cc(N2CCN(CCO)CC2)n1 [dasatanib] (first compound 0.1 µM, partner dose 0.004 µM) | 68.6% | 121% | 133% | 107% | 49.4% | 38.3% | 42.7% | 85.2% | 159% | 62% | 211% | 42.6% | 98.8% | 43.8%
10 | Cn1c(=O)n(-c2ccc(C(C)(C)C#N)cc2)c2c3cc(-c4cnc5ccccc5c4)ccc3ncc21 + COCC[n+]1c2c(n(Cc3cnccn3)c1C)C(=O)c1ccccc1C2=O [YM155] (first compound 0.004 µM, partner dose 0.0004 µM) | 123% | 142% | 116% | 65.9% | 113% | 80.5% | 56.3% | 119% | 136% | 82.8% | 85.2% | 93.6% | 103% | 159%

— the supplement of paper PMC4604168 (melanoma cell lines)
